Measurements published in patent US12280090B2 (priority 2018, dated 2025).

Experiment: peptide made by a vendor
Details: whole synthesis

AFLSTVKNTLINVAGTMIDTFKCKITGVC (AFLSTVKNTLTNVAGTMIDTFKCKITGVC; Antimicrobial peptide based on North American bullfrog, Rana (Lithobates) catesbeiana)
outcome: the service provider was unable to synthesize this peptide despite multiple attempts

Where a sequence shows no end group, the ends are not given.
